Data source: PubChem BioAssay AID1259425 (University of Nebraska Medical Center, 2018)
The deposit covers about 14,000 reagents; below is an unselected part. Some reagents were tested in more than one well and are listed for each. Not all columns of the deposit are shown. No sequences are given here. Not given: the time to read-out.

- Aim: 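Find knockdowns that reproduce the gene expression pattern seen when KSR1 is lost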 (primary screen)
- Cells: HCT116 human colon cancer cells
- Knock-down reagent: siRNA pool against human genes, 50 nM siRNA
- Measurement: 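After 50 nM siRNA pool, branched-DNA assay measures six marker transcripts per well, minus blank, normalised to the geometric mean of two housekeeping transcripts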
- Direction: BNIP3L mRNA: higher = more BNIP3L transcript after knockdown; NDRG1 mRNA: higher = more NDRG1 transcript after knockdown

| gene knocked down | PubChem SID | BNIP3L mRNA, set 1 | NDRG1 mRNA, set 1 |
| --- | --- | --- | --- |
| TRIM10 (GeneID 10107) | SID363997547 | 0.138 | 0.222 |
| TUB (GeneID 7275) | SID363994436 | 0.0763 | 0.0704 |
| RBM25 (GeneID 58517) | SID364005035 | 0.251 | 1.44 |
| PDZD2 (GeneID 23037) | SID363999257 | 0.112 | 0.285 |
| RNASE7 (GeneID 84659) | SID364004063 | 0.156 | 0.168 |
| SLC30A10 (GeneID 55532) | SID364001199 | 0.0692 | 0.101 |
| CES2 (GeneID 8824) | SID363994929 | 0.0764 | 0.127 |
| PCDHGA11 (GeneID 56105) | SID364001241 | 0.0614 | 0.137 |
| SCGB1D1 (GeneID 10648) | SID363997344 | 0.102 | 0.0439 |
| KCNMA1 (GeneID 3778) | SID363993446 | 0.251 | 0.341 |
| POLG2 (GeneID 11232) | SID363997911 | 0.0511 | 0.179 |
| CHRM4 (GeneID 1132) | SID363992036 | 0.0452 | 0.0678 |
| IQSEC1 (GeneID 9922) | SID363999157 | 0.163 | 0.175 |
| PEX13 (GeneID 5194) | SID363993786 | 0.0664 | 0.148 |
| NENF (GeneID 29937) | SID363998458 | 0.0523 | 1.49 |
| ASAH2 (GeneID 56624) | SID364001469 | 0.117 | 2.37 |
| GPLD1 (GeneID 2822) | SID363992761 | 0.0881 | 0.211 |

Continued (2 carried over from the part before).
| gene knocked down | PubChem SID | BNIP3L mRNA, set 1 | NDRG1 mRNA, set 1 |
| --- | --- | --- | --- |
| ASAH2 (GeneID 56624) | SID364001469 | 0.117 | 2.37 |
| GPLD1 (GeneID 2822) | SID363992761 | 0.0881 | 0.211 |
| PFKFB2 (GeneID 5208) | SID363997037 | 0.214 | 0.513 |
| PPP2R5A (GeneID 5525) | SID363997067 | 0.043 | 0.235 |
| ZRSR2 (GeneID 8233) | SID363996025 | 0.107 | 0.118 |
| SLC4A1AP (GeneID 22950) | SID364000833 | 0.126 | 0.21 |
| AKAP1 (GeneID 8165) | SID363994586 | 0.333 | 0.21 |
| PPP2R5E (GeneID 5529) | SID363997070 | 0.0389 | 0.448 |
| ADRA1B (GeneID 147) | SID363991978 | 0.152 | 0.265 |
| ADRA1B (GeneID 147) | SID363991978 | 0.143 | 0.237 |
| ZRANB1 (GeneID 54764) | SID364000374 | 0.0601 | 0.263 |
| A4GALT (GeneID 53947) | SID364000314 | 0.183 | 0.182 |
| MORC4 (GeneID 79710) | SID364002951 | 0.154 | 0.229 |
| TRDMT1 (GeneID 1787) | SID363995394 | 0.11 | 0.307 |
| ACOT12 (GeneID 134526) | SID364004516 | 0.0848 | 0.116 |
| TCEAL9 (GeneID 51186) | SID364000020 | 0.214 | 0.324 |
| CD200R1 (GeneID 131450) | SID364004579 | 0.112 | 0.203 |
| TMED9 (GeneID 54732) | SID364000329 | 0.127 | 0.489 |
| ACBD5 (GeneID 91452) | SID364004668 | 0.15 | 0.235 |
